From PMC11265163

Amino acid sequences for entries named in this document (tags omitted). A change or cut given only in a name is not applied to a line headed by its entry.
UniProt Q9UKK3: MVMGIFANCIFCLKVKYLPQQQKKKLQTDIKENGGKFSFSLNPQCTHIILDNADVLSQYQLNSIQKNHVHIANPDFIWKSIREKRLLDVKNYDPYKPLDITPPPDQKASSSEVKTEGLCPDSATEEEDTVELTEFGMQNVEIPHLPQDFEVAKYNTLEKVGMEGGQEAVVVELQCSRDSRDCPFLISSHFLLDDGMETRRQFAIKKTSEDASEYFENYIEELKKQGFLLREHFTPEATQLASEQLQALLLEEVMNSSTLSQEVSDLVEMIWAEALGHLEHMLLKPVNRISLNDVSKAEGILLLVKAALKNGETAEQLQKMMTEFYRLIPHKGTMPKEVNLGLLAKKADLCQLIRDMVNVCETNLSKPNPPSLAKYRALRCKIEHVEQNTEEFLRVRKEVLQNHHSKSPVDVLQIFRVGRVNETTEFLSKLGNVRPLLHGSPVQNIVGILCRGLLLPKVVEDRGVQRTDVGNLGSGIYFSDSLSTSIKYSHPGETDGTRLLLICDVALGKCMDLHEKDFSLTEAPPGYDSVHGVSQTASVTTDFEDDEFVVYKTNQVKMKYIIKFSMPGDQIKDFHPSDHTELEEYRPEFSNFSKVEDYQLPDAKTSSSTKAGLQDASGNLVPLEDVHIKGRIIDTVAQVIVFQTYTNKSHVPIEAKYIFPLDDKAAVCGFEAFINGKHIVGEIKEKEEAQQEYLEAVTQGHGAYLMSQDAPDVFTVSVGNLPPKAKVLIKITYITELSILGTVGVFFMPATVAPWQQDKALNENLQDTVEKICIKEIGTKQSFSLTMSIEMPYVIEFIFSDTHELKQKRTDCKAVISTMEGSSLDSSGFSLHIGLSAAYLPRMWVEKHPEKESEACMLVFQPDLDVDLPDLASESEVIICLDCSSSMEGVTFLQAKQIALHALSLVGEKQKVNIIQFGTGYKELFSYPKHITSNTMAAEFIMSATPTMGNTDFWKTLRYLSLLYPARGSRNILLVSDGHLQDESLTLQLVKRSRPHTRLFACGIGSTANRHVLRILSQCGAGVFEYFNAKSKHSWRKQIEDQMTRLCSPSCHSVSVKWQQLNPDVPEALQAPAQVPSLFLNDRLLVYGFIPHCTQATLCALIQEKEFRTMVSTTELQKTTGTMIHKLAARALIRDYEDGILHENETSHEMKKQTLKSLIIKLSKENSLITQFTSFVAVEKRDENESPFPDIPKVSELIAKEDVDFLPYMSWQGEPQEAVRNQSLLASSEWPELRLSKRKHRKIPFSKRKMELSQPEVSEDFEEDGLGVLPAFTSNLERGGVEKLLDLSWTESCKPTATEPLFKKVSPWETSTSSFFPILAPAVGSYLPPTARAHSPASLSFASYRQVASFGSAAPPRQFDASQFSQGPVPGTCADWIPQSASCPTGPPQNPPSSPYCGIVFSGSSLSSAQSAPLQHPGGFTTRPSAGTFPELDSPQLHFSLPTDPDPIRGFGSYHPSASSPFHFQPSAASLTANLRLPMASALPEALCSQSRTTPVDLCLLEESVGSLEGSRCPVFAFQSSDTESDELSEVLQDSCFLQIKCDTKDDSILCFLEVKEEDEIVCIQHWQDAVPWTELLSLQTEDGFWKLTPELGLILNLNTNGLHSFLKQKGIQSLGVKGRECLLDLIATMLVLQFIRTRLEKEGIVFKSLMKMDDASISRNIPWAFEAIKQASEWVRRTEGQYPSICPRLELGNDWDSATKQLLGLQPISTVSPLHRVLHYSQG

What was measured:
Assay in all cases: co-IP; FLAG immunoprecipitation of exogenously introduced FLAG-tagged PARP4 fragments or domain-deletion mutants from HEK293T cells; endogenous hnRNPM detected
[1] = biological target: PARP4 with deletion of the MVP interaction domain (UniProt Q9UKK3)
[2] = biological target: PARP4 with deletion of the VIT domain (UniProt Q9UKK3)
[3] = biological target: PARP4 with deletion of the VWFA domain (UniProt Q9UKK3)

Measured: binding

B1: heterogeneous ribonucleoprotein M (hnRNPM) (protein, UniProt P52272 1-730)
chain: MAAGVEAAAEVAATEIKMEEESGAPGVPSGNGAPGPKGEGERPAQNEKRKEKNIKRGGNRFEPYANPTKRYRAFITNIPFDVKWQSLKDLVKEKVGEVTYVELLMDAEGKSRGCAVVEFKMEESMKKAAEVLNKHSLSGRPLKVKEDPDGEHARRAMQKVMATTGGMGMGPGGPGMITIPPSILNNPNIPNEIIHALQAGRLGSTVFVANLDYKVGWKKLKEVFSMAGVVVRADILEDKDGKSRGIGTVTFEQSIEAVQAISMFNGQLLFDRPMHVKMDERALPKGDFFPPERPQQLPHGLGGIGMGLGPGGQPIDANHLNKGIGMGNIGPAGMGMEGIGFGINKMGGMEGPFGGGMENMGRFGSGMNMGRINEILSNALKRGEIIAKQGGGGGGGSVPGIERMGPGIDRLGGAGMERMGAGLGHGMDRVGSEIERMGLVMDRMGSVERMGSGIERMGPLGLDHMASSIERMGQTMERIGSGVERMGAGMGFGLERMAAPIDRVGQTIERMGSGVERMGPAIERMGLSMERMVPAGMGAGLERMGPVMDRMATGLERMGANNLERMGLERMGANSLERMGLERMGANSLERMGPAMGPALGAGIERMGLAMGGGGGASFDRAIEMERGNFGGSFAGSFGGAGGHAPGVARKACQIFVRNLPFDFTWKMLKDKFNECGHVLYADIKMENGKSKGCGVVKFESPEVAERACRMMNGMKLSGREIDVRIDRNA
binds: all assays above

These are yes or no findings as the source states them, for the method shown. In cells and extracts the contact can be indirect. A result given as binding can be weak or reduced; the word gives no strength.
